Results are given in words; binding and its absence hold for the method and conditions named. In cells and extracts the contact can be indirect. Here binding means that the protein was enriched with, or labelled near, the bait; the list need not be complete.
Target: FLAG-tagged human PFKFB4 (human) (UniProt Q16877)
Assay: affinity purification with mass spectrometry; FLAG-M2 magnetic beads on lysate of transfected MeWo cells (100 mM NaCl, 0.5% NP-40, 20 mM Tris-HCl pH 7.5, 5 mM MgCl2), overnight at 4°C; nanoESI-Orbitrap, Mascot; negative control V5-tagged PFKFB4

Sequences of proteins named here, by UniProt entry; tags and fusion partners are left off.
UniProt Q16877: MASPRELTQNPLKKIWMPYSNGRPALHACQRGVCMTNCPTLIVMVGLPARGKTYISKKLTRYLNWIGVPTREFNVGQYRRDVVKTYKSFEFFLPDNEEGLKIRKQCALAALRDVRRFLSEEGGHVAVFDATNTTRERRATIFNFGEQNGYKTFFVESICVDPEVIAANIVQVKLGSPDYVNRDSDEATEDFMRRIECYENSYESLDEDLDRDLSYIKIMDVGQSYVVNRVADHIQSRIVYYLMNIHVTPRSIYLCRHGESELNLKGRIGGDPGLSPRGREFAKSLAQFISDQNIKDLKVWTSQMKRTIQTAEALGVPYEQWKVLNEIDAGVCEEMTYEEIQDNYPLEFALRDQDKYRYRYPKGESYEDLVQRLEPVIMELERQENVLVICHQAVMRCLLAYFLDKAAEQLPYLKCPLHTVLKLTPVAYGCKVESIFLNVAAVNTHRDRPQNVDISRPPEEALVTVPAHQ
UniProt O60725: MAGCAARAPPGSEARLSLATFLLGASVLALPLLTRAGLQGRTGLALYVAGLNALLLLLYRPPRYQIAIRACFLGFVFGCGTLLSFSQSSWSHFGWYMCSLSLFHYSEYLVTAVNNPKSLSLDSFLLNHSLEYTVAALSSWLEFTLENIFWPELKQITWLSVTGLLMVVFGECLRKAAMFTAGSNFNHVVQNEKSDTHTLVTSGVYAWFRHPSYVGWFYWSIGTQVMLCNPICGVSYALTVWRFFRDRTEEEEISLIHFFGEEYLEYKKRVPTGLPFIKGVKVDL

Substance: isoprenylcystein carboxyl methyl transferase (ICMT), endogenous (from UniProt O60725 1-284) (enzyme)
- binding: binds

From PMC9348664
